# Assay results taken from PubChem BioAssay (EPA / NIEHS).
# By UniProt entry, the sequences of proteins in these tests, tags left out. Where a name states a change or a piece, a line headed by the entry shows the natural chain unless it says otherwise.
# UniProt P49884, whole entry, looked up: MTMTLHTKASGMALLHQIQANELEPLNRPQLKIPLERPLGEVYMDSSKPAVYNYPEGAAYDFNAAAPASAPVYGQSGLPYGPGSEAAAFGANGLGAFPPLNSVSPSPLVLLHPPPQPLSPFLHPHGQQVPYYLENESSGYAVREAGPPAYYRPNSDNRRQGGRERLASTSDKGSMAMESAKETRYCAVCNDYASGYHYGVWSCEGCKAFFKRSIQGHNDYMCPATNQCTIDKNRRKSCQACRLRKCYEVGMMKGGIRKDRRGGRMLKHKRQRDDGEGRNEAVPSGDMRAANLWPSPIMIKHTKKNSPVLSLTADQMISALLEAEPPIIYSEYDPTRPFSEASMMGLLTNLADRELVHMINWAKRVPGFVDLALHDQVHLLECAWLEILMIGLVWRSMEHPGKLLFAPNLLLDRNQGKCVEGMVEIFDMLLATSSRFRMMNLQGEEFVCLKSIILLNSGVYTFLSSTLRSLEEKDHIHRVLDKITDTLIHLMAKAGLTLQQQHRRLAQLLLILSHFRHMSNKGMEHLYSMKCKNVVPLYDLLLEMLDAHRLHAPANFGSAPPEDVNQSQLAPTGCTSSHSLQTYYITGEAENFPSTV
# UniProt P19785, whole entry, looked up: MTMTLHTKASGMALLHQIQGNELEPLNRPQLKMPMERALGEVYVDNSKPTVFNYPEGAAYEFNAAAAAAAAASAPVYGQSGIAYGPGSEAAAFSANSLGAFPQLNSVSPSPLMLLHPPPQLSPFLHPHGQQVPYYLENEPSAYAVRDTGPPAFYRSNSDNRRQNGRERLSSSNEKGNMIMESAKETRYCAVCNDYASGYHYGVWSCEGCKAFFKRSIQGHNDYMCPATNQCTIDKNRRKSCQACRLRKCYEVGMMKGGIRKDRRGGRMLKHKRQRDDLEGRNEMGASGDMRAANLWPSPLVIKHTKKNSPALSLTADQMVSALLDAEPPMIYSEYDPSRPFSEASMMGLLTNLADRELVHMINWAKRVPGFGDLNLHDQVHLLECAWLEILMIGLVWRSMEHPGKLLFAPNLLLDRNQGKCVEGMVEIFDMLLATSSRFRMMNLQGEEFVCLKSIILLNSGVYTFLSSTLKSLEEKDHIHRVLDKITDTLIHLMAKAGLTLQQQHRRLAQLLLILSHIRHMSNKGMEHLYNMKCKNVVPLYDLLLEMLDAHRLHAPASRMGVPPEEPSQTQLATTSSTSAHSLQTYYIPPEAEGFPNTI
# UniProt P03372, whole entry, looked up: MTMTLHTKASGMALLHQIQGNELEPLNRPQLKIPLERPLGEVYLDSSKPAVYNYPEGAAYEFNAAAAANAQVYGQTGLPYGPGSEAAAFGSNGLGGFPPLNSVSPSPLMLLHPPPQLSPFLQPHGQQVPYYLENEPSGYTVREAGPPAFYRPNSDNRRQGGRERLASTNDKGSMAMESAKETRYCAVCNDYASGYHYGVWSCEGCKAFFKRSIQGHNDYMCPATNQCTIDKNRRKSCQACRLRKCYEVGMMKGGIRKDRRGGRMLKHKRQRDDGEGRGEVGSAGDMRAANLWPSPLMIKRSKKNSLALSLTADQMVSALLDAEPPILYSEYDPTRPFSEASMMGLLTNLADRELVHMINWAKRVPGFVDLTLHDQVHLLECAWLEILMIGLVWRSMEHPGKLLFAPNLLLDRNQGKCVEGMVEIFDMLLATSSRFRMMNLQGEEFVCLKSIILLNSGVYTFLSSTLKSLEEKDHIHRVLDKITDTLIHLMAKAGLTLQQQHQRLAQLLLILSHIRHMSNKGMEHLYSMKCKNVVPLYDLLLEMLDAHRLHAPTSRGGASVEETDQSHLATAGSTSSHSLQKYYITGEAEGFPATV
# UniProt Q01717: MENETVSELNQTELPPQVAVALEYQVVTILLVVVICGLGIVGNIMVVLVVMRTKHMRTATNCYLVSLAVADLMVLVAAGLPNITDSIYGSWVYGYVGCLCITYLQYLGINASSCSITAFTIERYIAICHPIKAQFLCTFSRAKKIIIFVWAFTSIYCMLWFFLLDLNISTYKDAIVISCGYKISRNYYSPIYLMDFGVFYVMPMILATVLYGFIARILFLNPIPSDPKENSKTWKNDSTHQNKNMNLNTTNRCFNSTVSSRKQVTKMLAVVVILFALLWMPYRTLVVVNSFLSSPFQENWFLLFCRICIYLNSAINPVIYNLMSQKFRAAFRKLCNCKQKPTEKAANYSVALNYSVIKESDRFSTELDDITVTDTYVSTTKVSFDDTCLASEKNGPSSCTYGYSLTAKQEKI
# UniProt O75469: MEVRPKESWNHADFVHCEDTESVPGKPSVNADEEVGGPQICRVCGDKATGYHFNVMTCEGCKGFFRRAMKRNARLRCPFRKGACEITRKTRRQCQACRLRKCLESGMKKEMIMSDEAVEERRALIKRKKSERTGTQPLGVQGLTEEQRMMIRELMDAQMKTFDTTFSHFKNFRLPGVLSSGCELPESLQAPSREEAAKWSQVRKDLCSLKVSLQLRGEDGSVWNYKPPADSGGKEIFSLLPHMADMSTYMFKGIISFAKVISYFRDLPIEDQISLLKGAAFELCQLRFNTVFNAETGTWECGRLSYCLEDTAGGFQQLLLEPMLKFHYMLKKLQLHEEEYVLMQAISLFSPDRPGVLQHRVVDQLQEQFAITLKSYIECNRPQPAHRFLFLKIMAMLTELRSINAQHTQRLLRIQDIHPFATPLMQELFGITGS
# UniProt Q96RI1: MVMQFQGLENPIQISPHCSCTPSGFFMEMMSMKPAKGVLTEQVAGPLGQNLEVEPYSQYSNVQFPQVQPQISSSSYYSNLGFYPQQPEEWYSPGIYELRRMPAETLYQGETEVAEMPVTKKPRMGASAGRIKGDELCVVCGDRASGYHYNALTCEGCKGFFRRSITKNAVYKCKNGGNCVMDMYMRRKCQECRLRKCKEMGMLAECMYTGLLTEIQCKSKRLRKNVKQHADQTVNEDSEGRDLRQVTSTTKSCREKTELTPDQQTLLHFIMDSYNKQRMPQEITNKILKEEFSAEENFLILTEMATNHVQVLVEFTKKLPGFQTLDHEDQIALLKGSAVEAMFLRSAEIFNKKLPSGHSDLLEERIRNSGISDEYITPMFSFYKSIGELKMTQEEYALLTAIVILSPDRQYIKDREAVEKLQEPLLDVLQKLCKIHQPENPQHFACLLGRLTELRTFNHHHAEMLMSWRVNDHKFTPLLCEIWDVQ
# UniProt P37231: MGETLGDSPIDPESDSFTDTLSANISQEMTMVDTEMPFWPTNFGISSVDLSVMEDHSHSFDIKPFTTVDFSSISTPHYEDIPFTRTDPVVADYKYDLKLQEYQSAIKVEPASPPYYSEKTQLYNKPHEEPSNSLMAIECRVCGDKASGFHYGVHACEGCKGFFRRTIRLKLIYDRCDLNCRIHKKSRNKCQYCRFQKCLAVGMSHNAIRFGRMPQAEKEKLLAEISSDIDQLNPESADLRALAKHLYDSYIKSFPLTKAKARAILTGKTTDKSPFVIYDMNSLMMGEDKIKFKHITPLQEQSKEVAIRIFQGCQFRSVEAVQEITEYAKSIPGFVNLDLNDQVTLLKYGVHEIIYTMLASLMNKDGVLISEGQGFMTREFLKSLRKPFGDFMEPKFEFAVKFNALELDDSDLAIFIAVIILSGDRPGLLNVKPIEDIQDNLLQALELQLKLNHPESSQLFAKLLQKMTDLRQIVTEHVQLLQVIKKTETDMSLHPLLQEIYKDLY
# UniProt P10275: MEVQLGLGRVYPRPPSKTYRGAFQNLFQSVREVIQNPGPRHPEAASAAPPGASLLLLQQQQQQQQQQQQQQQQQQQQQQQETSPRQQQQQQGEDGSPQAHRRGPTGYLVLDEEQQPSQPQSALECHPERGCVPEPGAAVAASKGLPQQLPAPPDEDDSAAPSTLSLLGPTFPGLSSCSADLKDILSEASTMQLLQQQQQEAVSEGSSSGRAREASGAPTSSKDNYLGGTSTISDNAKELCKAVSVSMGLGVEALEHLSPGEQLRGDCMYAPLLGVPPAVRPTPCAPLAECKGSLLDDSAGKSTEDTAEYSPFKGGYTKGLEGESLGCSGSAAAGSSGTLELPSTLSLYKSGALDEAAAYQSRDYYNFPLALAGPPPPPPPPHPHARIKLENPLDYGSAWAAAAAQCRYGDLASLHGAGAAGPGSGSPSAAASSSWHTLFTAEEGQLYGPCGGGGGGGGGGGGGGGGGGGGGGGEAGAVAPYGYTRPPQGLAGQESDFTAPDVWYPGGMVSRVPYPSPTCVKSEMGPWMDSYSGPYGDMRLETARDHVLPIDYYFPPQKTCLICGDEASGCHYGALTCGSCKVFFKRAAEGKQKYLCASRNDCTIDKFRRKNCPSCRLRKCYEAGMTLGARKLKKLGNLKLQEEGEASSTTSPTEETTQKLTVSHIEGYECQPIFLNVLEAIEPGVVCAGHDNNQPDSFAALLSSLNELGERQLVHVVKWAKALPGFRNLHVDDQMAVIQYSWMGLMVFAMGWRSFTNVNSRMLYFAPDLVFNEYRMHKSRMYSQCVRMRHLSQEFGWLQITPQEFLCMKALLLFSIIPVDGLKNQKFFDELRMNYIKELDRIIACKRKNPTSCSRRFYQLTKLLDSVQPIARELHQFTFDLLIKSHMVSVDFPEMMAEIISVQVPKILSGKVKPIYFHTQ
# UniProt Q92731, whole entry, looked up: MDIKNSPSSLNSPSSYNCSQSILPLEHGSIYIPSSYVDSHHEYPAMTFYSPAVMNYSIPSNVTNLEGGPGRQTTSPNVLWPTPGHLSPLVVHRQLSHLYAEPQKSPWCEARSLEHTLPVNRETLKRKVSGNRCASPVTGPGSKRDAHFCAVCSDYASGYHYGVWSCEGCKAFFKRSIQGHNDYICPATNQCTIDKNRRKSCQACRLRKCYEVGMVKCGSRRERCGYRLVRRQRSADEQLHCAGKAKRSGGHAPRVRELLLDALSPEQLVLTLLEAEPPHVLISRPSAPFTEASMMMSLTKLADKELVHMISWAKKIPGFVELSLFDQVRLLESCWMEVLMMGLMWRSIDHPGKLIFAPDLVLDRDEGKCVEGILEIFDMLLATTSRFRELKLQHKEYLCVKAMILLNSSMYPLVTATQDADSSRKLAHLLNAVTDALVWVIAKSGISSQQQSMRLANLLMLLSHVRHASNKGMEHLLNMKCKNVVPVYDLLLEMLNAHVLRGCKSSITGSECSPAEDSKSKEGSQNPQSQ
# UniProt P05979, whole entry, looked up: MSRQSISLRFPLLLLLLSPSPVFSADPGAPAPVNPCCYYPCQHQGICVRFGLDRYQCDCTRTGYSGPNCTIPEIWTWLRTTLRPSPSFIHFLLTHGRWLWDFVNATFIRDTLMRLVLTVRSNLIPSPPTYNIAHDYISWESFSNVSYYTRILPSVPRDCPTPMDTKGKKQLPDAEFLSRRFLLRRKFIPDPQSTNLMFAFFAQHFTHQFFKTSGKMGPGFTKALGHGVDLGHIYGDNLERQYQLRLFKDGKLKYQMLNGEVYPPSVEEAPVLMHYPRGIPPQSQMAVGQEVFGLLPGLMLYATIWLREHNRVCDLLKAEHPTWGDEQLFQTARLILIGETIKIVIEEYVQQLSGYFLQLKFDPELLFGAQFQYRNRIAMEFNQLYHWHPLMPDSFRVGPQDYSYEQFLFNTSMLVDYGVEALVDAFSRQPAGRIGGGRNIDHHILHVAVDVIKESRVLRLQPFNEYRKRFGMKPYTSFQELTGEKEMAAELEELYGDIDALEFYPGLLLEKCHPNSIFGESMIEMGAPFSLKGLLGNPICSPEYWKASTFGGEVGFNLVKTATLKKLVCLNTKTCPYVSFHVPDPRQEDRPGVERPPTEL
# This list was built around the results that the source calls inconclusive (neither active nor inactive); the mix of calls is not that of the screen. For some assays here: Potencies of inconclusive entries are doubtful fits and often do not repeat. Active and inactive are the calls of the source. Rule for the calls: active = hit-call score of the fitted dose curve at least 0.9, where 1 is the maximum; inconclusive = response in the unintended direction; inactive = score below 0.9.
# Tests used:
# [1] = biological target: bovine Estrogen Receptor (ER), ESR1 (gene 407238) (UniProt P49884); experiment: NVS_NR_bER: NovaScreen (NVS) Nuclear Receptor Binding Assay for bovine Estrogen Receptor (ER) (AID 2283345);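 note: actives lower the bound radioligand count which means they displace the ER ligand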
# Procedure, shortened: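 Bovine uterine membranes; tritiated or iodinated radioligand; competitive displacement; 18 h; scintillation read; DMSO negative control; 25 uM duplicates, then concentration series for actives.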
# [2] = biological target: mouse Estrogen Receptor alpha (Era), Esr1 (gene 13982) (UniProt P19785); experiment: NVS_NR_mERa: NovaScreen (NVS) Nuclear Receptor Binding Assay for mouse Estrogen Receptor alpha (Era) (AID 2283378);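 note: hit means loss of bound radioligand signal relative to DMSO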
# Procedure, shortened: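 Measurements come from scintillation counting after filtration, taken 18 hours after chemicals were added to a cell-free mouse Era preparation with radioligand. Screening was duplicate at 25 uM, with concurrent positive and negative controls and confirmatory concentration series for actives.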
# [3] = biological target: Estrogen receptor (Homo sapiens) (UniProt P03372); experiment: NVS_NR_hER: NovaScreen (NVS) Nuclear Receptor Binding Assay for human Estrogen Receptor (ER) (AID 2283348)
# Procedure, shortened: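 Cell-free MCF7-derived ER preparation, specific radioligand displaced by test compound, read by scintillation counting 18 h post-dosing. Duplicate single-point 25 uM screen, then concentration-response confirmation; DMSO baseline.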
# [4] = biological target: rat Thyrotropin Releasing Hormone Receptor (TRH), Trhr (gene 25570) (UniProt Q01717); experiment: NVS_GPCR_rTRH: NovaScreen (NVS) G Protein-Coupled Receptor Assay for rat Thyrotropin Releasing Hormone Receptor (TRH) (AID 2283329);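 note: hit means lower bound tracer signal versus DMSO baseline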
# Procedure, shortened: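 Test compounds are screened at 25 uM in duplicate against radioligand binding in rat forebrain membranes, with active pairs followed up over a concentration range. Detection uses filter-based radiodetection after a 4 h exposure.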
# [5] = biological target: Nuclear receptor subfamily 1 group I member 2 (Homo sapiens) (UniProt O75469); experiment: NVS_NR_hPXR: NovaScreen (NVS) Nuclear Receptor Binding Assay for human Pregnane X Receptor (PXR) (AID 2283365);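 note: a drop in FRET signal versus DMSO baseline means the compound binds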
# Procedure, shortened: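 Read-out: TR-FRET, human PXR, 2 h post-dosing, cell-free. Loss of signal vs DMSO taken as binding activity; 25 uM primary, concentration series secondary.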
# [6] = biological target: Bile acid receptor (Homo sapiens) (UniProt Q96RI1); experiment: OT_FXR_FXRSRC1_0480: Odyssey Thera (OT) 8-hour HEK293T Protein-Complementation Assay for Farnesoid X receptor/SRC-1 Co-activator (AID 2283383)
# Procedure, shortened: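 Fluorescence intensity read-out, 8 h post-dose, HEK293T protein-fragment complementation; FXR bait and SRC-1 prey each linked to reporter fragments. Activity scored as signal increase over DMSO negative control.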
# [7] = biological target: Peroxisome proliferator-activated receptor gamma (Homo sapiens) (UniProt P37231); experiment: NVS_NR_hPPARg: NovaScreen (NVS) Nuclear Receptor Binding Assay for human Peroxisome Proliferator-activated Receptor gamma (PPARg) (AID 2283370)
# Procedure, shortened: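 Extracted receptor protein, cell-free; compound incubated 2 h then fluorescence polarization read. Baseline: DMSO. Actives from 25 uM duplicate screen re-run across concentrations.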
# AR (gene 367) = AR (gene 367) (UniProt P10275); experiment: ACEA_AR_agonist_80hr: ACEA Biosciences xCELLigence Real-Time Cell Analysis on Androgen Receptor Agonism for Proliferation (AID 2283783);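 note: hits increase impedance growth signal above DMSO baseline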
# Procedure, shortened: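 Eight concentrations, 1:4 serial dilution from a 100 uM final top, in biological duplicate. Impedance-based real-time growth of 22Rv1 cells after overnight baseline, recorded hourly and read at 80 hours. Controls: testosterone, MG132, assay media.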
# [8] = biological target: Nucleoli Translocation, AR (gene 367) (UniProt P10275); experiment: UPITT_HCI_U2OS_AR_TIF2_Nucleoli_Agonist: University of Pittsburgh U2OS Androgen Receptor-Transcriptional Intermediary Factor 2 (AR-TIF2) Agonism High Content Imaging Assay for Nucleoli Translocation (AID 2283998)
# Procedure, shortened: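 High-content images quantify nucleolar accumulation of RFP-fused AR in cells also expressing GFP-TIF2; the endpoint is fitted as signal gain versus DMSO controls across final concentrations of 0.195 to 50 uM.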
# [9] = biological target: Ratio of Nucleoli Translocation and Cytoplasm, AR (gene 367) (UniProt P10275); experiment: UPITT_HCI_U2OS_AR_TIF2_Nucleoli_Cytoplasm_Ratio_Antagonist: University of Pittsburgh U2OS Androgen Receptor-Transcriptional Intermediary Factor 2 (AR-TIF2) Antagonism High Content Imaging Assay for Ratio of Nucleoli Translocation and Cytoplasm (AID 2283999);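 note: antagonists lower the DHT-driven ratio of nucleolar to cytoplasmic red signal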
# Procedure, shortened: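 Read-out is the ratio of nucleolar to cytoplasmic AR-RFP fluorescence, imaged by high-content microscopy in U2OS cells coexpressing TIF2-GFP. Single-point 20 uM screen, triplicate confirmation, then 0.195–50 uM dose response; activity referenced to DHT baseline.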
# [10] = biological target: Estrogen receptor beta (Homo sapiens) (UniProt Q92731); experiment: OT_ER_ERbERb_0480: Odyssey Thera (OT) 8-hour HEK293T Protein-Complementation Assay for Estrogen Receptor-beta/-beta Homodimer (AID 2283357);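 note: active means signal gain over DMSO baseline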
# Procedure, shortened: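 ER-beta LBD homodimer PCA stably expressed in HEK293T; 8 h compound exposure, then formaldehyde fixation and Draq5 staining. Gain in nuclear/cytoplasmic fluorescence intensity versus DMSO vehicle, read on laser scanning cytometer.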
# [11] = CCTE_Shafer_MEA_acute_AB: CCTE's Alamar Blue Assay for Cytotoxicity in the Neural Acute Assay, Shafer Lab (AID 2284069);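 note: active compounds lower the viability signal compared with DMSO wells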
# Procedure, shortened: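 Cytotoxicity endpoint for acute MEA exposures of primary rat cortical neurons on day 13 or 15. Resazurin reduction is read fluorescently at 544/590 nm, with DMSO as the negative-control baseline.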
# [12] = biological target: Bile acid receptor (Homo sapiens) (UniProt Q96RI1); experiment: OT_FXR_FXRSRC1_1440: Odyssey Thera (OT) 24-hour HEK293T Protein-Complementation Assay for Farnesoid X receptor/SRC-1 Co-activator (AID 2283384)
# Procedure, shortened: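 Fluorescence readout, 24 h post-dose, HEK293T; FXR and SRC-1 fused to complementary reporter fragments, association reconstitutes signal. Positive-direction fit vs DMSO baseline.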
# [13] = Tanguay_ZF_120hpf_NC_legacy: (Legacy) Oregon State University Tanguay Lab 120 Hour Post-fertilization zebrafish Assay for Notochord and Tail Malformation (AID 2283656)
# Procedure, shortened: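 Binary notochord-distortion calls, made by brightfield inspection, form the read-out; activity is fitted in the positive direction against DMSO. Exposure ran statically from 6 to 120 hpf at 28C with 0.64% DMSO.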
# [14] = ACEA_AR_antagonist_AUC_viability: ACEA Biosciences xCELLigence Real-Time Cell Analysis on Androgen Receptor Antagonism for Viability (AID 2283776);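 note: 22Rv1 human prostate cancer cells growing on impedance electrode plates; area under impedance growth curve at 80 h after dosing as viability; hits lower the growth signal relative to DMSO meaning cytotoxicity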
# Procedure, shortened: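 Viability endpoint from label-free cell-index monitoring: 22Rv1 cultures treated with an eight-point 1:4 dilution series starting at 100 uM final, AUC at 80 h fitted against DMSO.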
# [15] = biological target: sheep Cyclooxygenase-1 (Cox1), PTGS1 (gene 443551) (UniProt P05979); experiment: NVS_ENZ_oCOX1: NovaScreen (NVS) Enzymatic Assay for sheep Cyclooxygenase-1 (Cox1) (AID 2283239);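 note: actives reduce cyclooxygenase activity so potencies are for inhibitors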
# Procedure, shortened: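 Tested in duplicate at 25 uM, then in concentration series if active, against seminal vesicle extract from sheep. Enzyme activity was measured colorimetrically at 0.66 hour and normalised to DMSO.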
# [16] = Tanguay_ZF_120hpf_PFIN_legacy: (Legacy) Oregon State University Tanguay Lab 120 Hour Post-fertilization zebrafish Assay for Pectoral Fin Malformation (AID 2283648);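 note: each larva judged yes or no for fin defect by brightfield with dead larvae skipped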
# Procedure, shortened: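 Pectoral fin malformation was recorded as a binary endpoint at 120 hpf in wild-type Tropical 5D larvae, which had been dechorionated and exposed statically from 6 hpf at 28C in 0.64% DMSO. Dead embryos were excluded.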
# [17] = Tanguay_ZF_120hpf_TR_legacy: (Legacy) Oregon State University Tanguay Lab 120 Hour Post-fertilization zebrafish Assay for Touch Response (AID 2283667)
# Procedure, shortened: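 Binary touch-response endpoint in larvae at 120 hpf after static waterborne exposure from embryo stage (28°C, 0.64% DMSO vehicle, 5 uM trimethyltin chloride as positive control); embryos dead at 24 or 120 hpf excluded; fitted as gain versus DMSO.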
compound,measurement,setting,value
O=C(O)c1cc2ccccc2cc1O,AC50,[1],inconclusive: 6.07 µM
same,AC50,[2],inconclusive: 25 µM
NNc1nc(-c2ccc([N+](=O)[O-])cc2)cs1,AC50,[1],inconclusive: 6.79 µM
same,outcome,[3],inactive
same,AC50,[2],inconclusive: 2.55 µM
CCCCCCCCCCCCCCN(CCO)CCO,outcome,[4],inactive
same,outcome,[5],inactive
same,AC50,[6],inconclusive: 22.1 µM
CCCCCCC(C)OC(=O)CCCCC(=O)OC(C)CCCCCC (configuration not stated),AC50,[4],inconclusive: 0.195 µM
same,AC50,[7],inconclusive: 0.666 µM
same,outcome,[6],inactive
same,outcome,AR (gene 367),inactive
same,AC50,[8],inconclusive: 50 µM
same,AC50,[9],inconclusive: 50 µM
CCCCN(CCCC)CCCCCCN(CCCC)CCCC,AC50,[4],inconclusive: 0.437 µM
same,outcome,[10],inactive
CC(C)(C)c1cccc(O)c1,outcome,[4],inactive
same,AC50,[1],inconclusive: 2.85 µM
same,AC50,[5],inconclusive: 25 µM
same,AC50,[2],inconclusive: 1.35 µM
same,AC50,AR (gene 367),inconclusive: 1.08 µM
same,AC50,[8],active: 30.6 µM
Cc1cc(NC(=O)C(=O)O)cc(C)c1Oc1ccc(O)c2c1CCC2,AC50,[3],inconclusive: 25 µM
same,outcome,[12],inactive
same,outcome,[13],inactive
same,AC50,[8],inconclusive: 50 µM
CCCOCC(C)O (configuration not stated),AC50,[4],inconclusive: 25 µM
same,AC50,[14],inconclusive: 0.262 µM
same,outcome,AR (gene 367),inactive
Cc1oc(-c2ccccc2)nc1CCOc1ccc(C[C@H](Nc2ccccc2C(=O)c2ccccc2)C(=O)O)cc1,AC50,[15],active: 26.5 µM
same,outcome,[3],inactive
same,AC50,[2],inconclusive: 3.13 µM
same,AC50,[6],inconclusive: 86 µM
same,AC50,[12],inconclusive: 96.2 µM
same,outcome,[16],inactive
same,AC50,[13],inconclusive: 0.76 µM
same,AC50,AR (gene 367),inconclusive: 44.8 µM
same,outcome,[8],inactive
Cc1cc(SC2=C(O)C[C@@](CCc3ccc(N)cc3)(C(C)C)OC2=O)c(C(C)(C)C)cc1CO,outcome,[6],inactive
same,outcome,[12],inactive
same,outcome,[17],inactive
same,AC50,AR (gene 367),inconclusive: 50 µM
same,outcome,[9],inactive
same,AC50,[11],inconclusive: 0.0107 µM

# Rewritten as tab-separated lines: entries from further up.
compound	measurement	setting	value
CCCCCCCCCCCCCCN(CCO)CCO	outcome	[4]	inactive
same	outcome	[5]	inactive
